From patent US20150274771A1 (Affibody, published 2015)
Where a chain is given by its changes, count along the chain named.

B1: His6-(Z06608)2-Cys (designed binder)
chain: MGSSHHHHHHLQVDAKYAKELHHAFREIKFLPNLTFHQRLAFIVKLDDDPSQSSELLAEAKKLNDAQAPKVDAKYAKELHHAFREIKFLPNLTFHQRLAFIVKLDDDPSQSSELLAEAKKLNDAQAPKVDC
modifications: coupled to resin through the C-terminal cysteine (thioether)
notes: immobilised on SulfoLink Coupling Resin
B2: His6-(Z06638)2-Cys (designed binder)
chain: B1 chain with H22V, H23N, R26S, F30A, F36L, H80V, H81N, R84S, F88A, F94L
modifications: coupled to resin through the C-terminal cysteine (thioether)
notes: as for B1
B3: His6-(Z06650)2-Cys (designed binder)
chain: MGSSHHHHHHLQVDAKYAKEFKLALQEIHYLPNLTLDQRLAFILKLDDDPSQSSELLAEAKKLNDAQAPKVDAKYAKEFKLALQEIHYLPNLTLDQRLAFILKLDDDPSQSSELLAEAKKLNDAQAPKVDC
modifications: coupled to resin through the C-terminal cysteine (thioether)
notes: as for B1

target: T1, PEP08515; assay: spin column, ligand on SulfoLink resin, bacterial extract with PEP08515, compared with HSA Sepharose (column study II)
T1 construct: applied in a clarified E. coli extract

Q: Does B1 bind?
A: Result: binds

Q: Does B2 bind?
A: Result: binds

Q: Does B3 bind?
A: Result: binds

target: T2, PEP08517; assay: spin column, ligand on SulfoLink resin, pure PEP08517, A280 of fractions (column study I)
T2 construct: also called ABD fusion protein PEP08517

Q: Does B1 bind?
A: Result: binds

Q: Does B2 bind?
A: Result: binds

Q: Does B3 bind?
A: Result: binds
